Reference: PubChem BioAssay AID1845228

Conditions: pampa; 60.0 min; 50.0 µM

Row | Structure (SMILES) | Papp
1 | C[C@@H]1COCCN1c1cc(-c2ccnn2C)c2ccnc(-c3ccn[nH]3)c2n1 | 60.1 ×10⁻⁶ cm/s
2 | C[C@@H](O)[C@H]1C(=O)N2C(C(=O)OCOC(=O)C(C)(C)C)=C(SC3CN(C4=NCCS4)C3)[C@H](C)[C@H]12 | 17 ×10⁻⁶ cm/s
